Variants at the background level are over-represented here.
B1: tRNA (parent)
chain: GUUCCGUUGGCGUAAUGGUAACGCGUCUCCCUCCUAAGGAGAAGACUGCGGGUUCGAGUCCCGUACGGAACG

Variants of: B1
Test: yeast fitness relative to wild type (ratio to wild type); higher = fitter; tRNA-Arg(CCU), competitive growth, 37 C, YPD
In short: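 For this measurement, the tRNA-Arg(CCU) gene was varied by chemical synthesis at a 3% per-site mutation rate across 69 sites, and each variant was placed at the native genomic locus in Saccharomyces cerevisiae. The pooled strains went through a 24-hour competition in YPD at 37°C in six parallel replicates, with amplicons from start and end populations read by 100-nucleotide paired-end sequencing. Darwinian fitness relative to wild type followed from the change in each genotype's frequency. Genotypes needed ≥ 100 starting reads, and estimates < 0.5 were set to 0.5.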
For GUUCCGUUGGCGUAAUGGUAACGCGUCUCCCUCGAAAGGAGAAGACUGCGGGUUCGUGUCCCGUACGGAACG [C34G U35A A57U], the yeast fitness was no more than 0.5. For GUUCCGUUGGCGUAAUGGUAACGCGUCUCCCUCGGAAGAAGAAGACUGCGGGUUCGAGUCCCGUGCGGAACG [C34G U35G G39A A65G], the yeast fitness was no more than 0.5. Work on GUUCCGUUGGCGUAAUGGUAACGCGUCUCCCUCUUAAGGUGAAGACUGAGGGUUCGAGUCCCGUACGGAACG [C34U A40U C49A] yielded a yeast fitness of no more than 0.5. For GUUCCGUUGGCGUAAUGGUAACGCGUCUCCCUCUUAAGGAGAAGACUGCGGGUUCGGGUCCGGUACGGAACG [C34U A57G C62G], the yeast fitness was no more than 0.5. In the case of GUUCCGUUGGCGUAAUGGUAACGCGUCUCCCUCUUAAGGAGAAGACUGAGGAUUCGAGACCCGUACGGAACG [C34U C49A G52A U59A], the yeast fitness is reported as no more than 0.5. Variant GUUCCGUUGGCGUAAUGGUAACGCGUCUCCCUCUUAAGGAGAAGACUGCGGGUUUGAGUCCCGUACGGAACG [C34U C55U] has a yeast fitness of 0.569. GUUCCGUUGGCGUAAUGGUAACGCGUCUCCCUCUUAAGGAGAAGACUGCGGGUUCGAGUCCCGUAGGGAUCG [C34U C66G A70U] showed a yeast fitness of no more than 0.5. Variant GUUCCGUUGGCGUAAUGGUAACGCGUCUCCCUCUUAAAGACAAGACUGCGGGUUCGUGUCCCGUACGGAACG [C34U G38A G41C A57U] has a yeast fitness of no more than 0.5. Variant GUUCCGUUGGCGUAAUGGUAACGCGUCUCCCUCUUAAGGAAAAGACAGCGGGUUCGACUCCCGUACGGAACG [C34U G41A U47A G58C] has a yeast fitness of no more than 0.5. In the case of GUUCCGUUGGCGUAAUGGUAACGCGUCUCCCUCCAAAGGAGAAGACUGCGGGUUCGAGUGCGGUACGAAACG [U35A C60G C62G G68A], the yeast fitness is reported as no more than 0.5. For GUUCCGUUGGCGUAAUGGUAACGCGUCUCCCUCCAAAGGACAAGACUGCGGAUUCGAGUCCCGUACGGAACG [U35A G41C G52A], the yeast fitness was no more than 0.5. In the case of GUUCCGUUGGCGUAAUGGUAACGCGUCUCCCUCCCACGGAGAAGACUGAGGGUUCGAGUCCCGUAUGGAACG [U35C A37C C49A C66U], the yeast fitness is reported as no more than 0.5. Variant GUUCCGUUGGCGUAAUGGUAACGCGUCUCCCUCCCAAGGAGAAGACUGCGGGUUGGAGUCCCGUACGGACCG [U35C C55G A70C] has a yeast fitness of no more than 0.5. With GUUCCGUUGGCGUAAUGGUAACGCGUCUCCCUCCCAAGGAGAAGACUGCAGGUUGGAGUCCCGUACGGAACG [U35C G50A C55G] the yeast fitness was no more than 0.5. With GUUCCGUUGGCGUAAUGGUAACGCGUCUCCCUCCCAAGGAGAAGACUGCGGGUUCGAGUCCCCUCCGGAACG [U35C G63C A65C] the yeast fitness was no more than 0.5. With GUUCCGUUGGCGUAAUGGUAACGCGUCUCCCUCCGAGGGAGAAGACUGUGGGUUCGAGUCCCGUACGGAACG [U35G A37G C49U] the yeast fitness was no more than 0.5. With GUUCCGUUGGCGUAAUGGUAACGCGUCUCCCUCCGAUGGAGAAGACUGCGGGUUCGAGUCCCGUACGGAACG [U35G A37U] the yeast fitness was no more than 0.5. In the case of GUUCCGUUGGCGUAAUGGUAACGCGUCUCCCUCCGAAGGAGAAGACUGCGGGUUCGGGUCGUGUACGGAACG [U35G A57G C61G C62U], the yeast fitness is reported as no more than 0.5. GUUCCGUUGGCGUAAUGGUAACGCGUCUCCCUCCGAAGGAGAAGACUGCGGGUUUGAGUCCCGUACGGAACG [U35G C55U] showed a yeast fitness of 0.664. GUUCCGUUGGCGUAAUGGUAACGCGUCUCCCUCCGAAAGAGAAGACUGCGGCUUCGAGUCCCGUACGGAACG [U35G G38A G52C] showed a yeast fitness of 0.678. In the case of GUUCCGUUGGCGUAAUGGUAACGCGUCUCCCUCCGAAGGAGAAGACUGCGGGUUCGAGUCCCGCUCGGAACG [U35G U64C A65U], the yeast fitness is reported as no more than 0.5. For GUUCCGUUGGCGUAAUGGUAACGCGUCUCCCUCCUCAGGUGAAGACUACGGGUUCGAGUCCCGUACGGAACG [A36C A40U G48A], the yeast fitness was no more than 0.5. Work on GUUCCGUUGGCGUAAUGGUAACGCGUCUCCCUCCUCAGGAGAAGAGUGCGGGUUCGAGUCCCGUACCGAACG [A36C C46G G67C] yielded a yeast fitness of no more than 0.5. GUUCCGUUGGCGUAAUGGUAACGCGUCUCCCUCCUCAGGAGAAGAUUGCGGGAUCGAGUCCCGUACGGAACG [A36C C46U U53A] gave a yeast fitness of 0.639. With GUUCCGUUGGCGUAAUGGUAACGCGUCUCCCUCCUCAAGAGAAGACUGCGGGUUCGAAUCCCGUACGGAACG [A36C G38A G58A] the yeast fitness was 0.562. In the case of GUUCCGUUGGCGUAAUGGUAACGCGUCUCCCUCCUCAGCAGAAGACUGCGGGUUCGAGUCCCAUUCGGAACG [A36C G39C G63A A65U], the yeast fitness is reported as no more than 0.5. Variant GUUCCGUUGGCGUAAUGGUAACGCGUCUCCCUCCUGAGGCGAAGACUGCAGGUUCGAGUCCCGUACGGAACG [A36G A40C G50A] has a yeast fitness of no more than 0.5. For GUUCCGUUGGCGUAAUGGUAACGCGUCUCCCUCCUGAGGAGAAGACUGCGGAUUCGAGUCCCGUAAGGUACG [A36G G52A C66A A69U], the yeast fitness was no more than 0.5. Variant GUUCCGUUGGCGUAAUGGUAACGCGUCUCCCUCCUUAGGAGACCACUCCGGGUUCGAGUCCCGUACGGAACG [A36U A43C G44C G48C] has a yeast fitness of no more than 0.5. For GUUCCGUUGGCGUAAUGGUAACGCGUCUCCCUCCUUAGGAGAAGACUGAGGGUUCGAGUCCCGUACGGAACG [A36U C49A], the yeast fitness was no more than 0.5. GUUCCGUUGGCGUAAUGGUAACGCGUCUCCCUCCUACGGGGAACACUGCGGCUUCGAGCCCCGUAUGGAACG [A37C A40G G44C G52C U59C C66U] gave a yeast fitness of no more than 0.5. With GUUCCGUUGGCGUAAUGGUAACGCGUCUCCCUCCUACGGAGGAAACUGCGGGUUCGAGUCCCGUACGGAACG [A37C A42G G44A] the yeast fitness was no more than 0.5. GUUCCGUUGGCGUAAUGGUAACGCGUCUCCCUCCUACGGAGACGCCUGCGGGUUCGAGUCCCGUACGGAACG [A37C A43C A45C] gave a yeast fitness of no more than 0.5. Work on GUUCCGUUGGCGUAAUGGUAACGCGUCUCCCUCCUACGGAGAAGGCUGCGGGUUCGAGUCCCGUCCGGAACG [A37C A45G A65C] yielded a yeast fitness of no more than 0.5. For GUUCCGUUGGCGUAAUGGUAACGCGUCUCCCUCCUACGGAGAAGACUGCGGGUUCGAGUCCCGUACGGAGCG [A37C A70G], the yeast fitness was 0.769. Work on GUUCCGUUGGCGUAAUGGUAACGCGUCUCCCUCCUACGGAGAAGAGUGCGGGUUCGAGUCCCGUACGGAACG [A37C C46G] yielded a yeast fitness of 0.947. Work on GUUCCGUUGGCGUAAUGGUAACGCGUCUCCCUCCUACGGAGAAGAUUGCGGGCUCGAGUCCCGUACGGAACG [A37C C46U U53C] yielded a yeast fitness of no more than 0.5. GUUCCGUUGGCGUAAUGGUAACGCGUCUCCCUCCUACGGAGAAGACUGCGGGUUGGAGUCCCGUAUGGAACG [A37C C55G C66U] gave a yeast fitness of no more than 0.5.
